Results are given in words; binding and its absence hold for the method and conditions named. In cells and extracts the contact can be indirect. Some results given as binding are weak or reduced against the parent protein; the word gives no strength.

The chains behind the UniProt entries cited, without tags or fusion partners. Residues count along the entry.
UniProt Q9C5A9, residues 55-559: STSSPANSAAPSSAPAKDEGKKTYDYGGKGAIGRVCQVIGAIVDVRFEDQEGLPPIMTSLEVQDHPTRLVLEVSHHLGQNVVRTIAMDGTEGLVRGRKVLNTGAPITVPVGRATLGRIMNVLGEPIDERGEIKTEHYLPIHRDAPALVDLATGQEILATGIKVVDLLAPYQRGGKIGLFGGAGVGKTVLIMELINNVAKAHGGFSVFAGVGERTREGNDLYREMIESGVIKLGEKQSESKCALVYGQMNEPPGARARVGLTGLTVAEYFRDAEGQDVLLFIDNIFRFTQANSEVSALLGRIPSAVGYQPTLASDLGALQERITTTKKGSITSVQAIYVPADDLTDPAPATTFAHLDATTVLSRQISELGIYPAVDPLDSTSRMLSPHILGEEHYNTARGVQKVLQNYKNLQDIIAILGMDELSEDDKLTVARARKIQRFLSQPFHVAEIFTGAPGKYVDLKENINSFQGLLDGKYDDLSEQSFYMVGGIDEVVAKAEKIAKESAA
UniProt Q9C9W3: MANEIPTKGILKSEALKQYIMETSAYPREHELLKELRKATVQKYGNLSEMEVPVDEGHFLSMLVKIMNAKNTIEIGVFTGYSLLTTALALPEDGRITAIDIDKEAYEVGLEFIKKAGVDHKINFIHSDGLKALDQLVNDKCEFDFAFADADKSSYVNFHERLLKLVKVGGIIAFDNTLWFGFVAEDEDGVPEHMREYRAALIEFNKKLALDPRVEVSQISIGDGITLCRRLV

For this experiment, the target named is CPK3-eGFP (Arabidopsis thaliana) (UniProt Q42479). As to the kind of experiment: FRET or BRET; FRET-FLIM in Nicotiana benthamiana epidermal leaf cells; donor CPK3-eGFP, acceptor N-terminal mRFP or C-terminal mCherry fusion; average GFP lifetime in a cytoplasmic sector (nucleus for HMGB5); at least five cells per sample. (In general: BRET reads energy transfer from a luciferase to a nearby fluorophore.)
As to “AT5G08680-mCherry (from UniProt Q9C5A9 55-559)”, the binding entry is listed as “binds”. Turning to “mRFP-AT5G08680 (from UniProt Q9C5A9 55-559)”, the binding entry is listed as “binds”. For mRFP-CCoAMT (from UniProt Q9C9W3 1-232) the value was “no binding”.

Source of the values: publication PMC3458939.
